The exact form of at least one protein or probe is not confirmed.

Chains of the proteins cited; added tags and fusions are not shown.
UniProt P09874, whole entry: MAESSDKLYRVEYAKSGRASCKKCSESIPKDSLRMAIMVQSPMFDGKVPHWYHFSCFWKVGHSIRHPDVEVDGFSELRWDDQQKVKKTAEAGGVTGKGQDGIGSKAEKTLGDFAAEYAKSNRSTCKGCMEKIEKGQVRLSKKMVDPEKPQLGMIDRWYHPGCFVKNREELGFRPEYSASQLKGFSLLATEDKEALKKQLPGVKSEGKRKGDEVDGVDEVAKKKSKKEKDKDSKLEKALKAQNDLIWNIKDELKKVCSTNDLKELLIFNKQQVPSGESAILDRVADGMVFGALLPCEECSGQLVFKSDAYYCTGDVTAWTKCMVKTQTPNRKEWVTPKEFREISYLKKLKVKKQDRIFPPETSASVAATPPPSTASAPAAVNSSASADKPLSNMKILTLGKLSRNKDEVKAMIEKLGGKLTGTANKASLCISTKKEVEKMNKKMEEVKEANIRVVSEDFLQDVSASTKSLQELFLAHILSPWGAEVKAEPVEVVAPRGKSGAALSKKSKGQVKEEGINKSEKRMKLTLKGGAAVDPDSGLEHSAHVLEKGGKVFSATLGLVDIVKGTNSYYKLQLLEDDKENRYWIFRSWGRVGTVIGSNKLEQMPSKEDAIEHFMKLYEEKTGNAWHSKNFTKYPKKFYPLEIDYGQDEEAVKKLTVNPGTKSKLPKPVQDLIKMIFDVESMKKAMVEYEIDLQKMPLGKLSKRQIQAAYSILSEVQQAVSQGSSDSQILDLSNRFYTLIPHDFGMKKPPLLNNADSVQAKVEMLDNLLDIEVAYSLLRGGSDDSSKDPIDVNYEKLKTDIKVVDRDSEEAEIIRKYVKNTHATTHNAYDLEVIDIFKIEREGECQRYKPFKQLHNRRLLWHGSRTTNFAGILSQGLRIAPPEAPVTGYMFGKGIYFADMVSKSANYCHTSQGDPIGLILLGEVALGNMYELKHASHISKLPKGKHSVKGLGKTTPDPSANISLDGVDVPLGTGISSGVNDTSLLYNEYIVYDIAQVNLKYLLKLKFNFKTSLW
UniProt P09874, whole entry W589A: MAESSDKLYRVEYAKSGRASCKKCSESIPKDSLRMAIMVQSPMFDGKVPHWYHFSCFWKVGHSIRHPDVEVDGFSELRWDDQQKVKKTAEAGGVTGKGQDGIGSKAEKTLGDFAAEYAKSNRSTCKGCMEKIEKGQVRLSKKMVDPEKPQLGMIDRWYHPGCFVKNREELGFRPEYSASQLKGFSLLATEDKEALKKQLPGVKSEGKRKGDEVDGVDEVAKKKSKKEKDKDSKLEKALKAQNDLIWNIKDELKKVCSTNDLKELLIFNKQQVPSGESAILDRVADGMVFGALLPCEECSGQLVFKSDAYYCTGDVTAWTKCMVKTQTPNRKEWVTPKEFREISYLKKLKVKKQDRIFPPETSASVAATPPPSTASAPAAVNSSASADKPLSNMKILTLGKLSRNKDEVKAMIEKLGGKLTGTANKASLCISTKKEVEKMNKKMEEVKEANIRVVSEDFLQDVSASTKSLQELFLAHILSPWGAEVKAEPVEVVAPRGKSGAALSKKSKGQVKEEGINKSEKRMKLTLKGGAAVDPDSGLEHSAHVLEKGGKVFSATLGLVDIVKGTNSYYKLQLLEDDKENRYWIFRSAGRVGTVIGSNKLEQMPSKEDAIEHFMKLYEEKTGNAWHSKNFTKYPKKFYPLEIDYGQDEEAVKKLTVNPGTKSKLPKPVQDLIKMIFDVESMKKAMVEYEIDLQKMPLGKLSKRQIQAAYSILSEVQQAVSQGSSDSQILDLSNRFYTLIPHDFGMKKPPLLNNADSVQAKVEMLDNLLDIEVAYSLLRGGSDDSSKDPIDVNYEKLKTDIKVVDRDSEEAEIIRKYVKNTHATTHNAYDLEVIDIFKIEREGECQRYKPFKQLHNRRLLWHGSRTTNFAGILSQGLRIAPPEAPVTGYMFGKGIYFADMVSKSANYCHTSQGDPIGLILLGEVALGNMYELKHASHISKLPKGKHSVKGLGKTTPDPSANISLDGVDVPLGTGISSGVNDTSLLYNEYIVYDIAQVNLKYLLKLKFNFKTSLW

For data set [1], the target named is PARP1 WT (human) (UniProt P09874). The experiment in a line: stopped-flow fluorescence anisotropy competition. Particulars: second DNA binding to PARP1 pre-bound to p18mer* (ternary complex), k2 0.043 nM-1 s-1; 5'-phosphate; 50 mM Tris-HCl pH 7.5, 50 mM NaCl, 1 mM MgCl2, 0.1 mM EDTA, 0.01% IGEPAL, 20 C; recombinant protein; residues 1-1014. (Fluorescence polarisation rises when a labelled molecule tumbles more slowly, as on binding a larger partner.)

In data set [2] the target is PARP1 W589A (human) (UniProt P09874). The experiment in a line: stopped-flow fluorescence anisotropy. Particulars: apparent kinetic Kd, k-1 20 s-1; 5'-phosphate; 50 mM Tris-HCl pH 7.5, 50 mM NaCl, 1 mM MgCl2, 0.1 mM EDTA, 0.01% IGEPAL, 20 C; recombinant protein; residues 1-1014.

As to “GGGTTGCGGCCGCTTGGG (double strand) [p18mer (unlabeled)]”, the Kd in data set [1] is 2600 nM.

With “GGGTTGCGGCCGCTTGGG (double strand) [p18mer* (labeled DSB model)]”, in data set [2], the Kd was determined as 5 nM.

These data come from paper PMC6135609.
